Values quoted from earlier work as cited in US6979543B2 (priority 1999, dated 2005).
At least one compound was matched to its structure with a doubt left.

What was measured:
[1] = cited from earlier work
[2] = cited from earlier work; remark: listed apart in the source

SMILES: C[n+]1ccc(-c2cc[n+](C)cc2)cc1 [MV^2+, N,N″-dimethyl-4,4″-bipyridinium]
- Stern-Volmer quenching constant for stilbene [1]: about 2000
- amplified quenching in a conjugated polymer compared to small molecule repeat unit [2]: 65
